Three substances from publication doi:10.1101/2020.02.24.954453 can be followed below.

Assay [1] addresses T1, mCherry-UPF1 (human) (UniProt Q92900).
T1 sequence: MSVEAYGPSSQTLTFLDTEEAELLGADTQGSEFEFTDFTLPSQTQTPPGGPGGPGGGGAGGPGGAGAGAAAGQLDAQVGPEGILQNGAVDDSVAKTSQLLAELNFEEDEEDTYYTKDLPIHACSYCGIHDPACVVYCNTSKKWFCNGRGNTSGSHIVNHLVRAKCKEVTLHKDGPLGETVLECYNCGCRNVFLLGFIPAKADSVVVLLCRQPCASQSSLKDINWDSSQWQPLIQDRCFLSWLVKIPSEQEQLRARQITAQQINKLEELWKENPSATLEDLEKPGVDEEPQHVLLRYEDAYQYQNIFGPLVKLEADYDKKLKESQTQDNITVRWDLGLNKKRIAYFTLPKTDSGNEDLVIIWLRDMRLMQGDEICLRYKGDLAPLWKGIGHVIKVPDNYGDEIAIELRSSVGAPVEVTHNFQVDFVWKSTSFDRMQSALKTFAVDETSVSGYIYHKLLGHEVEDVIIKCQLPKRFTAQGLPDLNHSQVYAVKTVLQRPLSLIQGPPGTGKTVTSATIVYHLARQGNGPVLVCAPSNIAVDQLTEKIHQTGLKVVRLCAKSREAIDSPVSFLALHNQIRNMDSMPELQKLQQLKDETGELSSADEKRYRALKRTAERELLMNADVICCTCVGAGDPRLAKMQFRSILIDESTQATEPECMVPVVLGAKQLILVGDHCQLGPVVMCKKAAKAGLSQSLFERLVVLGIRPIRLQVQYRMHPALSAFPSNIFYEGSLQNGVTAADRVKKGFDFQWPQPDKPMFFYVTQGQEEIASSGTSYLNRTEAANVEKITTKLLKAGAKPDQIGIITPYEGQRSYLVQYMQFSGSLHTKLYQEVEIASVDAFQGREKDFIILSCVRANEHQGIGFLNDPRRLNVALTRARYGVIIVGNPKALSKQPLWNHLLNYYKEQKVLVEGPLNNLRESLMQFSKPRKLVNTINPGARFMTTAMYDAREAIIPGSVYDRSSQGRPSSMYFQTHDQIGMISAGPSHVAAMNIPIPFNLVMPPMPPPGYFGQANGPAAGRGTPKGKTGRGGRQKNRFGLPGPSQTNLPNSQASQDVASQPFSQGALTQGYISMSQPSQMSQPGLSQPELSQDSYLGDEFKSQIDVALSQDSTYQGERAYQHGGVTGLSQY
Nature of the assay: FRET or BRET. For orientation: BRET reads energy transfer from a luciferase to a nearby fluorophore.

The target in assay [2] is T1, mCherry-UPF1 (human). Nature of the assay: fluorescence cross-correlation spectroscopy.
The target of the next assay is T2, FLAG-tagged UPF1 (human) (UniProt Q92900).
T2 sequence: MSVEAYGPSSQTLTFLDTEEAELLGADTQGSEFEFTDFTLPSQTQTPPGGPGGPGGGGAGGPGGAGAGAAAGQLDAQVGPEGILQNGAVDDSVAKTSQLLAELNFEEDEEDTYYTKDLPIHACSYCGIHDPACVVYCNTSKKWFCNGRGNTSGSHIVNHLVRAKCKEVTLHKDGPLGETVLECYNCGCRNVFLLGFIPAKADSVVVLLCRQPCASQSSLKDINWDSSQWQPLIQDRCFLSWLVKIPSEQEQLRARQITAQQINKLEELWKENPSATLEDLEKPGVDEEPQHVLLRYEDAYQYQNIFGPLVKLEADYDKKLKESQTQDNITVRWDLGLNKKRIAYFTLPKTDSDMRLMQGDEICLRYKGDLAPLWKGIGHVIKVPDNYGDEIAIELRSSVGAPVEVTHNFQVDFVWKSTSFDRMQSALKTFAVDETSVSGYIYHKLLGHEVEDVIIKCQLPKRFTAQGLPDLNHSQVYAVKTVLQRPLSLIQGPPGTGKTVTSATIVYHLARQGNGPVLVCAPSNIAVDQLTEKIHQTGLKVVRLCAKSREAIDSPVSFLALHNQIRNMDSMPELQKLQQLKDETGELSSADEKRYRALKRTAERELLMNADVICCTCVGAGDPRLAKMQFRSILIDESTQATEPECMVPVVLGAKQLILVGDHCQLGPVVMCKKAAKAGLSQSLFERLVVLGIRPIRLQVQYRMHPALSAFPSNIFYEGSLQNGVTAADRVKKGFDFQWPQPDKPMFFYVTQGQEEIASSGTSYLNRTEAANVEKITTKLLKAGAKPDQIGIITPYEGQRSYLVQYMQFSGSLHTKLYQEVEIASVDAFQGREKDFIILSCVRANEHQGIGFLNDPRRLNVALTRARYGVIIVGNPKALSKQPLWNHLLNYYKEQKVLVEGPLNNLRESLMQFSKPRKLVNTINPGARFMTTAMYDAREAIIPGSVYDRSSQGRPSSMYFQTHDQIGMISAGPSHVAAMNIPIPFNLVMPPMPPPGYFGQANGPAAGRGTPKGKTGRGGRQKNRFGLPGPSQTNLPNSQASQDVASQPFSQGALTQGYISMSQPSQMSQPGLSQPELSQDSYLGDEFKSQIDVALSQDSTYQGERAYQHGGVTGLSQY
Nature of the assay: co-IP.

The target in assay [3] is T3, FLAG-tagged UPF1 C126S (human) (UniProt Q92900).
T3 sequence: T2 sequence with C126S
Nature of the assay: co-IP.

Assay [4] has as its target T4, endogenous UPF1 (human (endogenous in HeLa)) (UniProt Q92900).
T4 sequence: T1 sequence
Nature of the assay: proximity ligation.

Numbering of substitutions follows the chain as printed. These are yes or no findings as the source states them, for the method shown. Binding can be weak; no strength is given. For some assays here: In cells and extracts the contact can be indirect. For some assays here: Where a sequence is shown, tags or fusion partners need not be part of it.

Take GFP-NBAS (human): the binding entry with mCherry-UPF1 (human) [1] and with mCherry-UPF1 (human) [2] was “binds” throughout.
Turning to T7-tagged NBAS (human), the binding entry (with FLAG-tagged UPF1 (human); in assay [3]) was “binds” each time.
In the case of “endogenous NBAS (human (endogenous in HeLa))”, the binding result in assay [4] is “binds”.
